Laboratory results: patent US20200292528A1, “CELL CHEMOTAXIS ASSAYS” (The General Hospital Corporation, priority 2013, published 2020)
Some entries share one result that the patent states for a list of compounds. At least one compound was matched to its structure with a doubt left.

System: neutrophils
Test: Microfluidic neutrophil chemotaxis assay, healthy donor whole blood (finger prick, venous) and isolated neutrophils
Assay type: cell-based, human
Description: Capillary blood (50 μL) was collected by pricking a finger of healthy volunteers. The blood was then pipetted into an eppendorf tube containing a mixed solution of HBSS media, heparin anti-coagulant (1.65 USP/50 μL of blood), and Hoescht stain (10 μL, 32.4 μM). […] Louis, Mo.) or Leukotriene B4 (LTB4) (Caymen Chemicals, Ann Arbor, Mich.) [100 nM] immediately after the PDMS donut-shaped device was bonded to the well plate. The chemoattractant solution also contained fibronectin [25 nM] (Sigma-Aldrich, St. Louis, Mo.) to promote neutrophil surface adhesion. The chemoattractant was pipetted into the whole blood loading chamber (WBLC) and directly around the circumference of the device. […] Afterwards, the central whole-blood loading chamber and the outside region surrounding the donut were washed thoroughly with Phosphate Buffered Saline (PBS) in each well to wash away excess chemoattractant. […] Directionality of primed neutrophils was quantified by counting the number of cells that followed the chemotactic gradient and turned at the bifurcation toward the chemoattractant chamber as opposed to the number of cells that exited the device to the peripheral region. Cell velocities were calculated using Image J (NIH) and data analysis with GraphPad Prism. […]

## CCCCC/C=C\C[C@@H](O)/C=C/C=C/C=C\[C@@H](O)CCCC(=O)O [LTB4, Leukotriene B4]
  directionality index: greater than 0.9
